Measured values reported in PubChem BioAssay (NCATS).
Inconclusive results, whose numbers are uncertain, are shown with a selection of clear calls. A potency beside an inconclusive call is a rough fit, not a confirmed value. The source made the active and inactive calls. Calls follow the shape of the dose curve; as a rule, active = well fitted cell-killing curve with a large enough effect; inconclusive = small, poorly fitted or top-dose-only effect, or effect the other way; inactive = no such curve, though single readings can be large or run the other way. Bridge positions count the residues as written; N and C are the ends. Square brackets hold non-standard residues; d marks the D form. Residues, ends and D or L forms follow the SMILES beside them. Peptide text beside a SMILES is read from it. * marks the point of attachment. ξ: configuration not given here. Octanoyl(6-Me) = CCC(C)CCCCC(=O)*; ξThr(3R) = C[C@@H](O)C(N)C(=O)O; dDab = NCC[C@@H](N)C(=O)O; Dab = NCC[C@H](N)C(=O)O
Potency is read from the fitted curve at half-maximal effect.

Assay: Quantitative High-Throughput drug screen in 47 multiple myeloma cell lines against the NCATS MIPE library collection: Karpas25_ECACC cell viability assay (AID 1918968; also: nearly all actives have a fitted effect of over 35% in size)
Conditions: Karpas25 myeloma viability, CellTiter-Glo ATP, 48 h; viability (% of control): at 45.8 µM (top of the series)
Text: PI: Beverly A. Mock Ph.D.
Laboratory of Cancer Biology and Genetics,
Center for Cancer Research, National Cancer Institute,
National Institute of Health, Bethesda, Maryland
Drug resistance and disease progression are common in multiple myeloma (MM) patients, underscoring the need for new therapeutic combinations. […] We hypothesized that effective combinations would reduce MYC expression and enhance p16 activity. […] These preclinical data identify potentially useful drug combinations for evaluation in drug-resistant MM and reveal potential mechanisms of combined drug sensitivity.
Described herein is the primary MIPE qHTS used to cherrypick compounds. Validated compounds were then further tested for potential synergistic activiy.
[1] Peat TJ, Gaikwad SM, Dubois W, Gyabaah-Kessie N, Zhang S, Gorjifard S, Phyo Z, Andres M, Hughitt VK, Simpson RM, Miller MA, Girvin AT, Taylor A, Williams D, D'Antonio N, Zhang Y, Rajagopalan A, Flietner E, Wilson K, Zhang X, Shinn P, Klumpp-Thomas C, McKnight C, Itkin Z, Chen L, Kazandijian D, Zhang J, Michalowski AM, Simmons JK, Keats J, Thomas CJ, Mock BA. Drug combinations identified by high-throughput screening promote cell cycle transition and upregulate Smad pathways in myeloma. Cancer Lett. 2023 Aug 1;568:216284. doi: 10.1016/j.canlet.2023.216284. Epub 2023 Jun 24. PMID: 37356470; PMCID: PMC10408729.
SEQUENCE No. (e.g., 1, 2, 3, etc.); […] (e.g., Cells, Incubation, Reagent, etc.); VALUE and DESCRIPTION.
1; Cells; 5 uL; white, solid bottom 1536-well Greiner assay plate.
2; Compounds; 23 nL; Kalypsis pin tool (Wako USA) equipped with a 1536-well pin head to transfer to the assay plates.
3; Incubation; 48 hours; 37C incubation.
4; Reagent;5uL; CellTiter Glo (Promega).
5; Detector; 425V; Luminescence; Viewlux PerkinElmer.
NOTES (numbers refer to Sequence numbers above)
1. The cell-based screening methods employed in this study were like those previously published. Briefly, the corresponding myeloma cell lines were screened in 1,536-well plates with 500 cells, 5-uL per well for inhibition of cell viability (assessed by measuring ATP levels with CellTiterGlo).
2. NCATS MIPE 4.0 library of approved and investigational drugs were added using the Kalypsis pin tool. Wells treated with DMSO only for 100% viability and media only wells for 0% viability were used as controls.
3. The assay plates were covered and incubated for 48 hours in a 37C, 5% CO2 incubator with controlled humidity.
4. After 48 hours, CellTilter-GloTM luminescent substrate mix (Promega) reagent was added to the assay plate and plates we incubated for 5 min at room temperature.
5. Signal was measured as median relative luminescence units on a ViewLux (PerkinElmer) multiplate reader.
[1] Heske CM, Davis MI, Baumgart JT, Wilson K, Gormally MV, Chen L, Zhang X, Ceribelli M, Duveau DY, Guha R, Ferrer M, Arnaldez FI, Ji J, Tran HL, Zhang Y, Mendoza A, Helman LJ, Thomas CJ. Matrix Screen Identifies Synergistic Combination of PARP Inhibitors and Nicotinamide Phosphoribosyltransferase (NAMPT) Inhibitors in Ewing Sarcoma. Clin Cancer Res. 2017 Dec 1;23(23):7301-7311. doi: 10.1158/1078-0432.CCR-17-1121. Epub 2017 Sep 12. PMID: 28899971; PMCID: PMC6636827.
For CCOC(=O)C1=C(O)C(=O)N(Cc2ccccc2)C1, the Potency was inconclusive: 0.148 µM [cytotoxic, full curve, poor fit].
With Cc1cccc(-c2[nH]ncc2-c2ccc3ncccc3n2)n1 the Potency was inconclusive: 2.96 µM [cytotoxic, partial curve, poor fit].
With CC[C@H]1OC(=O)[C@H](C)[C@@H](O[C@H]2C[C@@](C)(OC)[C@@H](O)[C@H](C)O2)[C@H](C)[C@@H](O[C@@H]2O[C@H](C)C[C@H](N(C)C)[C@@H]2O)[C@](C)(O)C[C@@H](C)CN(C)[C@H](C)[C@@H](O)[C@]1(C)O the Potency was “inactive”.
In the case of CN(C)CCC=C1c2ccccc2COc2ccc(CC(=O)O)cc21, the Potency is reported as inconclusive: 18.7 µM [cytotoxic, partial curve].
In the case of COC(=O)[C@H](Cc1ccccc1)NC(=O)[C@@H](N)CC(=O)O (H-Asp-Phe-OMe), the Potency is reported as “inactive”.
For CC(C)(OCc1nn(Cc2ccccc2)c2ccccc12)C(=O)O, the Potency was inconclusive: 29.6 µM [cytotoxic, single point].
In the case of OCCN(CCO)c1nc(N2CCCCC2)c2nc(N(CCO)CCO)nc(N3CCCCC3)c2n1, the Potency is reported as active: 26.4 µM.
For CC(C)NCC(O)COc1ccc(COCCOC(C)C)cc1 (stereo not given), the Potency was “inactive”.
For Cc1nccn1CC1CCc2c(c3ccccc3n2C)C1=O (stereo not given), the Potency was inconclusive: 26.4 µM [cytotoxic, single point].
With C[N+]1(C)[C@@H]2CC(OC(=O)[C@H](CO)c3ccccc3)C[C@H]1[C@H]1O[C@@H]12 (stereo not given in full) the Potency was inconclusive: 0.0021 µM [rising, full curve, poor fit].
In the case of C[C@]1(c2nc3c(C(N)=O)cccc3[nH]2)CCCN1, the Potency is reported as inconclusive: 37.2 µM [cytotoxic, single point].
In the case of Nc1ccn([C@@H]2O[C@H](CO)[C@@H](O)[C@H]2O)c(=O)n1, the Potency is reported as inconclusive: 0.0526 µM [cytotoxic, full curve, poor fit].
With COc1c(N2CCNC(C)C2)c(F)cc2c(=O)c(C(=O)O)cn(C3CC3)c12 (stereo not given) the Potency was “inactive”.
In the case of OC(CN1CCN(c2cccc(Cl)c2)CC1)C(c1ccccc1)c1ccccc1 (stereo not given), the Potency is reported as inconclusive: 23.5 µM [cytotoxic, single point].
In the case of CCC1=C(C)CN(C(=O)NCCc2ccc(S(=O)(=O)NC(=O)NC3CCC(C)CC3)cc2)C1=O (stereo not given), the Potency is reported as “inactive”.
For C[C@]12CC[C@@H]3c4ccc(O)cc4CC[C@H]3[C@H]1C[C@@H](O)[C@H]2O, the Potency was “inactive”.
With CNS(=O)(=O)Cc1ccc2[nH]cc(CCN(C)C)c2c1 the Potency was inconclusive: 0.0012 µM [rising, full curve, poor fit].
In the case of Cc1ccc(/C=N/NC(=O)c2ccccc2Oc2ccccc2)o1, the Potency is reported as inconclusive: 14.8 µM [cytotoxic, partial curve].
In the case of CCCCCCCCCCCC(CC1OC(=O)C1CCCCCC)OC(=O)C(CC(C)C)NC=O (stereo not given), the Potency is reported as “inactive”.
With CON(C)C(=O)N1N=C(c2cc(F)ccc2F)S[C@]1(CCCN)c1ccccc1 the Potency was inconclusive: 18.7 µM [cytotoxic, single point].
In the case of CC(C)OC(=O)C(C(=O)OC(C)C)=C1SC=CS1, the Potency is reported as “inactive”.
With N#Cc1cc(NC(=O)Nc2nnc(-c3ccncc3)s2)ccc1-c1cn[nH]c1 the Potency was “inactive”.
In the case of CCC(C)CCCCC(=O)N[C@@H](CCN)C(=O)NC(C(=O)N[C@H](CCN)C(=O)N[C@@H]1CCNC(=O)C([C@@H](C)O)NC(=O)[C@@H](CCN)NC(=O)[C@@H](CCN)NC(=O)[C@@H](CC(C)C)NC(=O)[C@H](Cc2ccccc2)NC(=O)[C@H](CCN)NC1=O)[C@@H](C)O (stereo partly drawn) ({Octanoyl(6-Me)}-[Dab][ξThr(3R)][dDab][dDab][Dab]F[dL][dDab][dDab][ξThr(3R)]; lactam 4-C), the Potency is reported as inconclusive: 37.2 µM [cytotoxic, single point].
For O=C(O)C1=CC(O)C(O)[C@H](O)C1 (stereo not given in full), the Potency was “inactive”.
For CC(C)(C)c1[nH]cnc1C=c1[nH]c(=O)c(=Cc2ccccc2)[nH]c1=O, the Potency was inconclusive: 0.0043 µM [cytotoxic, full curve].
For CC[C@H]1OC(=O)[C@H](C)[C@@H](O[C@H]2C[C@@](C)(OC)[C@@H](O)[C@H](C)O2)[C@H](C)[C@@H](O[C@@H]2O[C@H](C)C[C@H](N(C)C)[C@@H]2O)[C@](C)(OC)C[C@@H](C)C(=O)[C@H](C)[C@@H](O)[C@]1(C)O, the Potency was “inactive”.
In the case of Cc1cc(C(=O)NOCCO)c(Nc2ccc(I)cc2F)n(C)c1=O, the Potency is reported as inconclusive: 23.5 µM [cytotoxic, single point].
In the case of N=C1SC(=Cc2ccc(-c3ccc4c(c3)C(=O)NC4=O)o2)C(=O)N1c1ccc(Br)cc1, the Potency is reported as inconclusive: 9.35 µM [cytotoxic, partial curve, poor fit].
For Cc1cc(O)c2c(c1)C(=O)c1cccc(O)c1C2=O, the Potency was “inactive”.
For Clc1ccc(-c2nc3sccn3c2C=NOCc2ccc(Cl)c(Cl)c2)cc1, the Potency was “inactive”.
For NC(=O)c1ncn([C@@H]2O[C@H](CO)[C@@H](O)[C@@H]2O)c1N, the Potency was inconclusive: 0.372 µM [cytotoxic, full curve, poor fit].
In the case of CC(=O)OCC(=O)[C@@]1(O)[C@H](C)C[C@H]2[C@@H]3C=C(C)C4=Cc5c(cnn5-c5ccccc5)C[C@]4(C)[C@@H]3[C@@H](O)C[C@@]21C, the viability (% of control) is reported as inconclusive: 4.63% [cytotoxic].
In the case of O=C(O)C=Cc1ccc(Cn2ccnc2)cc1, the Potency is reported as “inactive”.
For CCCCCCCCCCCCCCCC(=O)OC[C@@H](NC(=O)C(Cl)Cl)[C@H](O)c1ccc([N+](=O)[O-])cc1, the Potency was inconclusive: 0.0118 µM [rising, full curve].
For COCCNCCCn1c(C(=O)CF)c(-c2ccc(C)cc2)c2c(N)ncnc21, the Potency was inconclusive: 33.2 µM [cytotoxic, single point].
With C[C@H](NC(=O)Cc1cc(F)cc(F)c1)C(=O)N[C@H](C(=O)OC(C)(C)C)c1ccccc1 the Potency was “inactive”.
For NCCS(=O)(=O)O, the Potency was inconclusive: 20.9 µM [cytotoxic, partial curve, poor fit].
For CCCNC(=O)Nc1ccc(Oc2ncnc3cc(OC)c(OC)cc23)cc1Cl, the Potency was “inactive”.
For O=c1[nH]cnc2c1ncn2[C@H]1CC[C@@H](CO)O1, the Potency was inconclusive: 0.0019 µM [rising, full curve, poor fit].
In the case of CC[C@H]1OC(=O)[C@H](C)[C@@H](O[C@H]2C[C@@](C)(OC)[C@@H](O)[C@H](C)O2)[C@H](C)[C@@H](O[C@@H]2O[C@H](C)C[C@H](N(C)C)[C@H]2O)[C@](C)(O)C[C@H](C)C(=NOCOCCOC)[C@H](C)[C@@H](O)[C@]1(C)O, the Potency is reported as “inactive”.
